Results are given in words; binding and its absence hold for the method and conditions named. Some entries that bind do so weakly or less than the wild type.
What was measured:
Assay in all cases: ELISA, fusion polypeptide coated, IL13 in a gradient mixed with fixed IL4 (1 ng/ml) as competitor, detection with HRP anti-IL13 antibody; signal as a ratio to IL13 without IL4
[1] = biological target: IL4Rα-IL13Rα2-Fc (Homo sapiens (Human)) (UniProt P24394)
[2] = biological target: IL4Rα-IL13Rα1-Fc (Homo sapiens (Human)) (UniProt P24394)
[3] = biological target: IL13Rα1-IL4Rα-Fc (Homo sapiens (Human)) (UniProt P78552)

The chains behind the UniProt entries cited, without tags or fusion partners. Where a name states a change or a piece, a line headed by the entry shows the natural chain unless it says otherwise.
UniProt P24394: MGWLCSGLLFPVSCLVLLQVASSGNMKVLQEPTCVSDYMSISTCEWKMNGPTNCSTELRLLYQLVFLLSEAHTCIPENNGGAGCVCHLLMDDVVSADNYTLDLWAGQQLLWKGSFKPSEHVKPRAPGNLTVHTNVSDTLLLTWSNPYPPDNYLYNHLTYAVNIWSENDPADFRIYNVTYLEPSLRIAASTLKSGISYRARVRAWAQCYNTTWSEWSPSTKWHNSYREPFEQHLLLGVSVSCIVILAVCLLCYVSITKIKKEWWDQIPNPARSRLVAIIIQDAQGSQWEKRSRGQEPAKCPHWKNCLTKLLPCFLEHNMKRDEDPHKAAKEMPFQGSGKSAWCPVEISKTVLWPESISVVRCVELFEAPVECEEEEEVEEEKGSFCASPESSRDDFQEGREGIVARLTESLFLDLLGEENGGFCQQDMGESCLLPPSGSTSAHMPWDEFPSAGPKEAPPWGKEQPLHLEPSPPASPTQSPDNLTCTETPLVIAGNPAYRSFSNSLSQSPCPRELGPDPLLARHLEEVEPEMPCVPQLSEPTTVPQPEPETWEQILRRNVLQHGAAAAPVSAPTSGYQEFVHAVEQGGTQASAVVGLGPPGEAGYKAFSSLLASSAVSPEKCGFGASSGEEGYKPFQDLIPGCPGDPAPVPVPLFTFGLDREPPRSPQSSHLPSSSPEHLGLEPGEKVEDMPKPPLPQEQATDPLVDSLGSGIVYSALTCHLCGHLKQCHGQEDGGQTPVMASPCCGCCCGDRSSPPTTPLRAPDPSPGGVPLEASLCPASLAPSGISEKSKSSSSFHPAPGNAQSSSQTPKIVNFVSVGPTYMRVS
UniProt P78552: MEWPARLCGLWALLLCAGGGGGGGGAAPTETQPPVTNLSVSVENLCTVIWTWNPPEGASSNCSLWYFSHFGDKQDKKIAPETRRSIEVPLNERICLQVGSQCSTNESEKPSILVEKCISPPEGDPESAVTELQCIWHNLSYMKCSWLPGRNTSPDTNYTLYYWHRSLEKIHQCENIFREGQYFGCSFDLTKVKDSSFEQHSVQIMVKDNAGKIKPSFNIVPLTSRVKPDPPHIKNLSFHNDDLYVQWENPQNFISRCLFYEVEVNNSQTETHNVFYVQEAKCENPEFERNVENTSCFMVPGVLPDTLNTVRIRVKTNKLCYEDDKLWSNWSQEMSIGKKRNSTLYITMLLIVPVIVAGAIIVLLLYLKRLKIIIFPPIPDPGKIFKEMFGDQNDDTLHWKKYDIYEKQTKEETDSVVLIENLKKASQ
UniProt P35225: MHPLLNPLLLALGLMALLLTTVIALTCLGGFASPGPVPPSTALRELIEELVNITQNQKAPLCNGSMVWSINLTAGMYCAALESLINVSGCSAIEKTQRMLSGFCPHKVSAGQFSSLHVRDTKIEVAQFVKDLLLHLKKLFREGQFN

Measured: binding

Interleukin 13 (from UniProt P35225 36-146) (ligand)
binds: all assays above
